# Patent publication US10307380B1, “Composition and method for transdermal lidocaine delivery” (priority 2014, dated 2019)
# Conditions: after 2 months accelerated stability; Barex pouch
smiles,measurement,value
"CCN(CC)CC(=O)Nc1c(C)cccc1C [Lidocaine, lidocaine base]",absorption of drug onto the pouch,does not absorb onto the pouch
same,stability of drug in the pouched units,remains perfectly stable
